The campaign covered roughly 320,000 compounds. About 2,100 (0.66%) were called active. The shares of active, inactive and inconclusive entries below differ from those in the screen. The call rests on the fitted dose curve; in most records, active means well fitted inhibition curve with a large enough effect in the signal ratio, with a control signal flat (not every such curve was filed as active); inconclusive means small, poorly fitted or top-dose-only effect, or effect the other way, or a change in a side signal; inactive means flat fitted curve, though single readings scatter; the % refers to the signal ratio. Potencies of inconclusive entries are doubtful fits and often do not repeat.
Experiment: qHTS Assay for Lipid Storage Modulators in Drosophila S3 Cells
Conditions: BODIPY lipid droplet fluorescence, 18-24 h, cells fed with added oleic acid; lipid storage change, negative = inhibition: at 46.1 µM (top of the series) unless noted
How it was run: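 Drosophila S3 cells loaded with oleic acid (400 uM, as added) and compounds at several concentrations; lipid droplets imaged by 488-nm laser-scanning cytometry, 500–530 nm intensity and object ratio to cell channel. Percent activity normalized to 20 uM Triacsin C.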
On the % scale 0 is the no-effect control and ±100 the full control effect; potency means the concentration at half of the fitted maximal effect.

Lipid storage change, negative = inhibition, inactive:
Fc1cccc(Cl)c1Cn1nnc2c(NCc3ccccn3)ncnc21 -4.63%

Lipid storage change, negative = inhibition, inconclusive:
COC(=O)c1sccc1NC(=O)c1c(C)cc(=O)oc1C -33.3%
CN(C)c1ccc(C#Cc2ccc3cc(CCCO)oc(=O)c3c2)cc1 -28%
CC(=O)NS(=O)(=O)c1ccc(NC(=O)COc2ccc(C(=O)c3ccccc3)cc2)cc1 23.1%
C=CCn1cnc2c(c1=O)c1nc3ccccc3nc1n2/N=C/c1ccccn1 8.43%
Cc1ccc(COC(=O)c2cccc(S(=O)(=O)N3CCCCCC3)c2)cc1 5.79%
COc1ccccc1CNC(=O)COc1cccnc1[N+](=O)[O-] -9.91%
CN1CCN(c2nc(-c3ccccc3O)nc3ccccc23)CC1 38.4%
O=C(CC1NCCNC1=O)OCCCc1ccccc1 (configuration not stated) -8.96%
Cn1c(=O)[nH]c(=O)c2c1nc1n2CCCS1 2.54%
COc1ccc(/C=N/Nc2nccnc2Cl)c(OC)c1 -2.49%
Cc1ccc(OCc2nnc(SCC(=O)N3c4ccccc4Sc4ccc(Cl)cc43)o2)cc1 49.1%
Cc1ccc(NC(=O)c2ccc(NCCCN3CCC(C)CC3)c([N+](=O)[O-])c2)c(C)c1 13.7%
Cc1c(C(=O)NNC(=S)Nc2cccc(Cl)c2)nnn1-c1ccccc1 29%
O=C(NN1CCOCC1)c1cc(-c2ccc(Br)cc2)nc2ccccc12 12.1%

An excerpt from above in order of number of heavy atoms, largest number first:
Lipid storage change, negative = inhibition, inconclusive:
CC(=O)NS(=O)(=O)c1ccc(NC(=O)COc2ccc(C(=O)c3ccccc3)cc2)cc1 23.1%
COc1ccccc1CNC(=O)COc1cccnc1[N+](=O)[O-] -9.91%
COc1ccc(/C=N/Nc2nccnc2Cl)c(OC)c1 -2.49%

Next part.

Potency, active:
CC1CCN(C(CNS(=O)(=O)c2ccccc2)c2ccccc2)CC1 (configuration not stated) 0.461 µM

Potency, inconclusive:
COc1ccc(OC)c(-n2c(SCC(C)=O)nnc2-c2cccc(S(=O)(=O)N(C)C)c2)c1 13 µM [activator, partial curve]
COc1ccc(NC(=O)C2CCCN(S(=O)(=O)c3ccc(Cl)cc3)C2)cc1OC (configuration not stated) 6.51 µM [falling, single point]
Cc1ccc(/C=C/C2=NN(Cc3ccccc3Cl)C(=O)CC2)cc1 20.6 µM [rising, single point]
COc1ccc(CC(=O)N(C)CC(=O)Nc2cccc(F)c2)cc1S(=O)(=O)N1CCOCC1 16.4 µM [activator, single point]
Cc1cccc(NC(=S)NC(NC(=O)OCc2ccccc2)C(Cl)(Cl)Cl)c1 (configuration not stated) 29.1 µM [falling, single point]
Cc1ccc(CN(C)C(=O)c2cc(Br)c(Br)s2)o1 2.91 µM [falling, partial curve, poor fit]
